# Source: paper PMC9633600
# By UniProt entry, the sequences of proteins in these tests, tags left out. Where a name states a change or a piece, a line headed by the entry shows the natural chain unless it says otherwise. Chains listed by the source or under a name are the forms on record and can include a tag or linker.
# UniProt P62491: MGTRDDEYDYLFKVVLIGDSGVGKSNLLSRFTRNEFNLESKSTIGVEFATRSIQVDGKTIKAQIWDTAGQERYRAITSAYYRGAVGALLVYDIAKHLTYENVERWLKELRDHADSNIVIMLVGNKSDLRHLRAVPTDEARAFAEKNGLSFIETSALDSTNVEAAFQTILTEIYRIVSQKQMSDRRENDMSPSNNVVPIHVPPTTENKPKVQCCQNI
# FGFR2b-HA-APEX2 (P21802-3, form named): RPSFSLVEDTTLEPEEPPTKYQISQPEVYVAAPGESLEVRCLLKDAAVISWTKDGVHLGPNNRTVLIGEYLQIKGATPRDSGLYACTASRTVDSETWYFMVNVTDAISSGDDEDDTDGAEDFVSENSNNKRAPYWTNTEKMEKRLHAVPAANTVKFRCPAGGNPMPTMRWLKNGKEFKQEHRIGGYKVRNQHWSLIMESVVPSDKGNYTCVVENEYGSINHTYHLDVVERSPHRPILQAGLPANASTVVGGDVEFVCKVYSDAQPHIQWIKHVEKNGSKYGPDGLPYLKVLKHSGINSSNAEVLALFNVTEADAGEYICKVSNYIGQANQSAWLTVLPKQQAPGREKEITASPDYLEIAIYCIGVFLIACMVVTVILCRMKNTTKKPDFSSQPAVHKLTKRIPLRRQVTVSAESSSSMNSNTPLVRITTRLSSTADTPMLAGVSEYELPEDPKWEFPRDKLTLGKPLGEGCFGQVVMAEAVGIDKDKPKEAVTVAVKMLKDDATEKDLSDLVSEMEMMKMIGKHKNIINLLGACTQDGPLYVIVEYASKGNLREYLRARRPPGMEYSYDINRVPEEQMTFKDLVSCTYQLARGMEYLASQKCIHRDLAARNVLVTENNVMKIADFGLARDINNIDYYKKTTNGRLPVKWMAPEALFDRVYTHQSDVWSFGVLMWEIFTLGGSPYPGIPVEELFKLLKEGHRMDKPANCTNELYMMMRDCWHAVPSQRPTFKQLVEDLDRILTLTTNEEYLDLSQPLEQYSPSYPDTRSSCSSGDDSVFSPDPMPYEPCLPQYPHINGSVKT
# UniProt Q8N122: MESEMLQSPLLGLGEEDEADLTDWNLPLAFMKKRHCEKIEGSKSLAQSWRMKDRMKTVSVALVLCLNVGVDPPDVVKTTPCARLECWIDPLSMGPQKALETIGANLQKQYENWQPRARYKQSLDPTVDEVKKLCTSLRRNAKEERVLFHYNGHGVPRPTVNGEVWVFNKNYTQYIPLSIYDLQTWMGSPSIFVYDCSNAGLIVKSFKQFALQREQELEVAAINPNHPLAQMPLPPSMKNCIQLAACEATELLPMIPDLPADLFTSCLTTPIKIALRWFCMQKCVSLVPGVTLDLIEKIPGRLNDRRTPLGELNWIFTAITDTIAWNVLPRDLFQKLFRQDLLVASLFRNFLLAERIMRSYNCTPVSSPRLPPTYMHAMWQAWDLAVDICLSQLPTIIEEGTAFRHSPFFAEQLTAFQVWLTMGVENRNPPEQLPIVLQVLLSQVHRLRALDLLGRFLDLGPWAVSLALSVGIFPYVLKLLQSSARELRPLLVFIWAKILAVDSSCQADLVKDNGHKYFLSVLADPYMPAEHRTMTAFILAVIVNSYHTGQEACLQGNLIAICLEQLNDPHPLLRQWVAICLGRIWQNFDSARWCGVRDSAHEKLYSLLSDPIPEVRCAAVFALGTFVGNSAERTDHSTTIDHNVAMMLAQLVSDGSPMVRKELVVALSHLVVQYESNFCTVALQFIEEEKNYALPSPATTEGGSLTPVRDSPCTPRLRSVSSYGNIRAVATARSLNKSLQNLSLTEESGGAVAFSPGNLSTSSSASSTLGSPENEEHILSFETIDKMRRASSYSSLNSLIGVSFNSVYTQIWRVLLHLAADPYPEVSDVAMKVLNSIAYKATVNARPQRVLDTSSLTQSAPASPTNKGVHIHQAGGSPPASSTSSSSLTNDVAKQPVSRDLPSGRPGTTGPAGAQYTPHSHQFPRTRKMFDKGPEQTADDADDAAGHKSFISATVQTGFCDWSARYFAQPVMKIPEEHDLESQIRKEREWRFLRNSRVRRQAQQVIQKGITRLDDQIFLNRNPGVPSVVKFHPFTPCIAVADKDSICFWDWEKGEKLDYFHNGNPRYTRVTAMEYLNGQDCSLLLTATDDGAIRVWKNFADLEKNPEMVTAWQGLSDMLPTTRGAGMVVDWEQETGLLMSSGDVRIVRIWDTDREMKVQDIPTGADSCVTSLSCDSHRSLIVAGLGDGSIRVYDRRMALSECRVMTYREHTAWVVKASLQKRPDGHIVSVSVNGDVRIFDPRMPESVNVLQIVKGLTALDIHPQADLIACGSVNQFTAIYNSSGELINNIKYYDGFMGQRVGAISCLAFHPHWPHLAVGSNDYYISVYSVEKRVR
# Results are given in words; binding and its absence hold for the method and conditions named. Binding seen in cells or lysates may run through a third protein. A yes stands for co-enrichment or nearness to the bait. Other partners may have been found.
# Columns and labels:
# eGFP-RAB11-APEX2 [1] = molecular target: eGFP-RAB11-APEX2 (UniProt P62491); assay: proximity labelling; APEX2 fused to the bait in living cells; biotin-phenol 40 min, H2O2 1 min, quenched with Trolox and sodium ascorbate; streptavidin beads pull-down 2 h RT; bound proteins immunoblotted against supernatant and total lysate; cells untreated or FGF10 100 ng/mL for 1, 8 or 40 min
# eGFP-RAB11-APEX2 [2] = molecular target: eGFP-RAB11-APEX2 (UniProt P62491); assay: proximity labelling; Spatially Resolved Phosphoproteomics in HeLa cells: APEX2 biotinylation (biotin-phenol 40 min, H2O2 1 min), streptavidin beads 2 h RT, digestion, TiO2 enrichment of phosphorylated peptides, LC-MS/MS; untreated or FGF10 100 ng/mL 40 min; normalised against GFP-APEX2 samples
# FGFR2b-HA-APEX2 = FGFR2b-HA-APEX2 (UniProt P21802); assay: as above
binding (eGFP-RAB11-APEX2 [1]),binding (eGFP-RAB11-APEX2 [2]),binding (FGFR2b-HA-APEX2),Substance
binds,binds,–,HA-FGFR2b (from UniProt P21802-3 22-822) (receptor)
binds,binds,binds,RPTOR phosphorylated at S863 (from UniProt Q8N122 1-1335)
